# Experimental data published in patent publication US20220062371A1 (DEBIOPHARM RESEARCH & MANUFACTURING S.A., priority 2017, published 2022).
# Experiment: general procedure: Fmoc solid-phase peptide synthesis; Fmoc-Xxx-Wang resin (loading 0.60 mmol/g; Bachem); HBTU, HATU
# Details: whole synthesis
row,Substance,purity (crude or final not stated) [%]
1,ACit-Lys(PEG4-Mal-Cys-Ac)-Phe-OH,96
2,ACit-Phe-Lys(PEG4-Mal-Cys-Ac)-OH,96
3,AF-Arg-Lys(PEG4-Mal)-Phe-OH,96
4,AF-Arg-Lys(PEG4-Mal-Cys-Ac)-Phe-OH,94
5,AF-Arg-Phe-Lys(PEG4-Mal)-OH,98
6,AF-Arg-Phe-Lys(PEG4-Mal-Cys-Ac)-OH,90
7,AF-Cit-Lys(Mal-DM1)-Phe-Lys(PEG4-Mal-Cys-Ac)-Phe-OH (SEQ ID NO: 65),89
8,AF-Cit-Lys(PEG4-Mal-Cys-Ac)-Phe-OH,90
9,Ac-Cys-Ma-PEG5-Phe-Cit-Lys(Mcc-DM1)-Tyr-OH (SEQ ID NO: 61),80
10,Ac-Cys-Mal-PEG4-Phe-Arg-Lys(Mal-DM1)-Arg-Lys(AF)-Phe-OH (SEQ ID NO: 64),90
11,Ac-Cys-Mal-PEG4-Phe-Lys-Lys(AF)-Phe-OH (SEQ ID NO: 52),98
12,Ac-Cys-Mal-PEG4-[Phe-Lys-Lys(Mal-DM1)-Phe]2-OH (SEQ ID NO: 63),89
13,Ac-Cys-Mal-[PEG5-Lys(AF-Cit-Lys(Y)-Phe-OH)]2-Gly-NH2,85
14,Arg-PEG4-Phe-Arg-Dab(CO-CPT)-Phe-OH (SEQ ID NO: 49),83
15,Arg-PEG4-Phe-Arg-Dap(CO-CPT)-Phe-OH (SEQ ID NO: 48),96
16,Arg-PEG4-Phe-Arg-Glu(Sar-OCPT)-Phe-OH,94
17,Arg-PEG4-Phe-Arg-Ser(CO-CPT)-Phe-OH (SEQ ID NO: 50),90
18,Ma-PEG5-Phe-Cit-Lys(Mcc-DM1)-Cit-OH (SEQ ID NO: 60),97
19,Mal-PEG4-Phe-Lys-Lys(AF)-Phe-OH (SEQ ID NO: 53),95
20,"PEPTIDE1{[Mal].F.K.K.F}|PEPTIDE2{[Mal].[PEG4]}|PEPTIDE3{[ac].C}|CHEM1{[DM1]}$PEPTIDE1,PEPTIDE2,4:R3-2:R2|PEPTIDE2,PEPTIDE3,1:R3-2:R3|PEPTIDE1,CHEM1,1:R3-1:R1$$$V2.0",98
21,"PEPTIDE1{[Mal].F.[Cit].F.K}|PEPTIDE2{[Mal].[PEG4]}|PEPTIDE3{[ac].C}|CHEM1{[DM1]}$PEPTIDE1,PEPTIDE2,5:R3-2:R2|PEPTIDE2,PEPTIDE3,1:R3-2:R3|PEPTIDE1,CHEM1,1:R3-1:R1$$$V2.0",94
22,"PEPTIDE1{[Mal].F.[Cit].K.F}|PEPTIDE2{[Mal].[PEG4]}|PEPTIDE3{[ac].C}|CHEM1{[DM1]}$PEPTIDE1,PEPTIDE2,4:R3-2:R2|PEPTIDE2,PEPTIDE3,1:R3-2:R3|PEPTIDE1,CHEM1,1:R3-1:R1$$$V2.0",97
23,"PEPTIDE1{[Mal].[PEG4].F.K.K.F.F.K}|PEPTIDE2{[ac].C}|CHEM1{[Mal]}|CHEM2{[DM1]}$PEPTIDE1,PEPTIDE2,1:R3-2:R3|PEPTIDE1,CHEM1,5:R3-1:R2|CHEM1,CHEM2,1:R3-1:R1$$$V2.0",94
24,"PEPTIDE1{[Mal].[PEG4].F.K.K.F}|PEPTIDE2{[ac].C}|CHEM1{[Mal]}|CHEM2{[DM1]}$PEPTIDE1,PEPTIDE2,1:R3-2:R3|PEPTIDE1,CHEM1,5:R3-1:R2|CHEM1,CHEM2,1:R3-1:R1$$$V2.0",94
25,"PEPTIDE1{[Mcc].F.[Cit].K.Y}|PEPTIDE2{[Ma].[PEG5]}|PEPTIDE3{[ac].C}|CHEM1{[DM1]}$PEPTIDE1,PEPTIDE2,4:R3-2:R2|PEPTIDE2,PEPTIDE3,1:R3-2:R3|PEPTIDE1,CHEM1,1:R3-1:R1$$$V2.0",99

# Some peptides are written in HELM: one residue between dots, names in brackets for other building blocks, links after the first $.
